In this assay the target is human DGAT2 (Homo sapiens, UniProt Q96PD7). In words: DGAT2 enzyme activity inhibition, Phospholipid FlashPlate SPA. The note with it: recombinant human DGAT2 membrane protein from Sf-21 cells; inhibition of [14C]-TG production; 37° C.

The chains behind the UniProt entries cited, without tags or fusion partners.
UniProt Q96PD7, whole entry: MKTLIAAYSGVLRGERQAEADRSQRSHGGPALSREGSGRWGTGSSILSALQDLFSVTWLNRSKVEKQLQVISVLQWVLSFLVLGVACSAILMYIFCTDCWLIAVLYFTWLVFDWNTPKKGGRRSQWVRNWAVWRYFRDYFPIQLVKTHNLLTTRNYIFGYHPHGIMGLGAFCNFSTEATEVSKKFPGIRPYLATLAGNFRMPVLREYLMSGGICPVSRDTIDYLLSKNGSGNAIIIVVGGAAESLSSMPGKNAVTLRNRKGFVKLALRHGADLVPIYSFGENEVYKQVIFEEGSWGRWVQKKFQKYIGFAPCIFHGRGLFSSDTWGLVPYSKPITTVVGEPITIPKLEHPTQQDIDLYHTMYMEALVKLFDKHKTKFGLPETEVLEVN

Structures are written as SMILES. The match of structure and compound is tentative.

For orientation: IC50 means the point on the concentration scale where inhibition reaches its midpoint.

`CCOc1ccccc1O[C@@H]1CCCN(c2nc(Nc3cccc(-c4cccc(CC(C)(C)C(=O)O)c4)n3)ncc2F)C1`: the IC50 worked out at 1300 nM.

The values above are taken from patent US12630528B2, “Amino aryl derivative useful as diacylglycerol acyltransferase 2 inhibitor and use thereof” (LG CHEM, LTD., priority 2019, dated 2026).
